Results published in publication PMC6697737.
These are yes or no findings as the source states them, for the method shown. Binding seen in cells or lysates may run through a third protein. A result given as binding can be weak or reduced; the word gives no strength. Where a sequence is shown, tags or fusion partners need not be part of it.

What was measured:
[1] = target: T1, MNS3-GFP (Arabidopsis ER-α-mannosidase I fused to GFP) (Arabidopsis thaliana) (UniProt Q93Y37); assay: co-IP; GFP baits co-expressed with mRFP fusions in N. benthamiana leaves; extracts in 1x PBS, 1% Triton X-100, protease inhibitors; GFP-Trap-A beads, 60-90 min at 4 °C; immunoblot with anti-GFP and anti-mRFP
T1 sequence: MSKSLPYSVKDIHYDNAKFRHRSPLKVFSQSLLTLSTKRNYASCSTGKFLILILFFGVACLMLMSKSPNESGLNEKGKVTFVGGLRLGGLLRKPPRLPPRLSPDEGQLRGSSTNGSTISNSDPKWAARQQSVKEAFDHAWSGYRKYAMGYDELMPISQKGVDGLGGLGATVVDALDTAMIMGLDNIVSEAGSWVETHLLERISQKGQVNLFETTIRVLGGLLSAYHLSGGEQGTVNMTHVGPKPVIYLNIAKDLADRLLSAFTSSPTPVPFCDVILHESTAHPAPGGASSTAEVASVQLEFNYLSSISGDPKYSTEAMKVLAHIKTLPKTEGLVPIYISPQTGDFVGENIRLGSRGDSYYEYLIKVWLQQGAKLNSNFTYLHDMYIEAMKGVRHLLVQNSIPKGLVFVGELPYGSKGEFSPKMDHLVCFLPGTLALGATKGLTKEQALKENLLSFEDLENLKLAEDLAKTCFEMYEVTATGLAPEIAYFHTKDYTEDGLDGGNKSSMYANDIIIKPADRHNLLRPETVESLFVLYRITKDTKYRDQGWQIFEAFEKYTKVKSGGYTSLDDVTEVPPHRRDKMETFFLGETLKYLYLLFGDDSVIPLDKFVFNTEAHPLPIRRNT

[2] = target: T2, MNS3-GFP-HDEL (full-length MNS3 C-terminally tagged with GFP and the ER retrieval signal HDEL) (Arabidopsis thaliana) (UniProt Q93Y37); assay: as above
T2 sequence: T1 sequence

“GnTI-mRFP (β1,2-N-acetylglucosaminyltransferase I fused to mRFP) (enzyme)” was tested, and the binding [1] was “binds” and the binding [2] was “binds”.
